{
  "source": "patent US8614255B2",
  "about": "“Pulmonary pharmaceutical formulations” (Civitas Therapeutics, Inc., priority 2007, dated 2013)",
  "test": "Stability testing of budesonide formulations: drug content and purity by reverse phase HPLC",
  "type": "physicochemical",
  "note": "For at least one compound, name, drawing or mass did not settle the structure.",
  "data": [
    {"smiles": "CCCC1O[C@@H]2C[C@H]3[C@@H]4CCC5=CC(=O)C=C[C@]5(C)[C@H]4[C@@H](O)C[C@]3(C)[C@]2(C(=O)CO)O1", "note": "(stereo partly drawn) [VG0169, Budesonide]", "values": [
      {"measurement": "Mean Content (%) 2 weeks, 40° C.", "setting": "budesonide content after 2 weeks at 40° C., 20% relative humidity", "value": 100.19, "unit": "%"},
      {"measurement": "Mean Content (%) 4 weeks, 40° C.", "setting": "budesonide content after 4 weeks at 40° C., 20% relative humidity", "value": 98.94, "unit": "%"},
      {"measurement": "Mean Content (%) T0", "setting": "budesonide content, T0", "value": 98.8, "unit": "%"},
      {"measurement": "Mean Purity (%) 2 weeks, 40° C.", "setting": "budesonide purity after 2 weeks at 40° C., 20% relative humidity", "value": 97, "unit": "%"},
      {"measurement": "Mean Purity (%) 4 weeks, 40° C.", "setting": "budesonide purity after 4 weeks at 40° C., 20% relative humidity", "value": 97, "unit": "%"},
      {"measurement": "Mean Purity (%) T0", "setting": "budesonide purity, T0", "value": 96.88, "unit": "%"}
    ]}
  ]
}
